In paper PMC7862700 one finds binding signal data, which are given here for 40 sequences.

The entries are a selection whose mix differs from that of the whole data set. At the low end of the ranking the order means little.

For the assay, the target named is SPI1 (UniProt P17947). The experiment in a line: DAPPL (digital affinity profiling via proximity ligation, sequencing). To be noted: 10 mM Tris-HCl pH 7.5, 50 mM NaCl, 1 mM DTT, 4% glycerol, room temperature, 30 min; GST-TFs on glutathione beads, 16-mer random dsDNA library, 0.1% …; high values mean tight binding; double strand, one strand shown; scale: fold enrichment (6-mer frequency, TF over GST control).
Consider AGGCGC, for which the binding signal worked out at 0.54.
CAGTCA had a binding signal of 0.515.
For GTAAAG the value was 0.943.
TCGGGT registered a binding signal of 0.622.
For ATCGGC the value was 0.613; for GGAGCA, 0.462; for CTGGGA, 0.913.
On to TGTGTA, for which the binding signal stood at 0.861.
As to GTGCCA, the binding signal is 0.884.
For GGAGGG the value was 0.301.
Next, GCGCTG: 0.747; GAGGCA: 0.447.
Take GCAGAC: the binding signal worked out at 0.743.
Next, GCAGTG: 0.506; AAAGTG: 0.974.
Sequence CGTAAG came in with a binding signal of 0.727.
Next, GTCGCC: 0.931.
Consider ATGGAG, for which the binding signal was 0.547.
For GGCTGA the value was 0.696; for GGGGGG, 0.534; for GGGGCC, 0.553.
As to GGAACC, the binding signal is 0.922.
Consider CAGTTT, for which the binding signal was found to be 0.801.
The sequence ATCGTG registered a binding signal of 0.426.
For CGGTTG the value was 0.772.
The sequence GGAGCG came in with a binding signal of 0.35.
Regarding AAGTGA, the binding signal is 0.805.
Next, CAAGGG: 0.907; GACACA: 0.87; AGTCCG: 0.621.
Regarding GGGCTG, the binding signal was 0.976.
For ATCGAG, the binding signal was 0.836.
On to TGGGAG, for which the binding signal was found to be 0.414.
For GCGGTA the value was 0.704; for CGGGGA, 0.449.
For CGTGCG, the binding signal came out at 0.621.
As to AGCGTA, the binding signal is 0.85.
For GCACCG the value was 0.66; for CGAGAC, 0.562; for GTACGG, 0.815.
